Values are relative to the signal before dosing, not to a vehicle control; the signal also falls without drug.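 Labels refer to human fibroblasts, largely primary: uterine (C12385, HUF), lung (H6013), bone (Hs27A), adrenal (HADF), skin (WS1), plus mammary HMF and breast cancer-associated Hs343T. Cancer lines are basal-like or mesenchymal-like triple-negative breast cancer. The paper counts as hits responses shifting over 3x the replicate standard deviation. The tissue of the other fibroblasts is not given here.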
Test system: MDAMB436
Experiment: relative JC-1 red fluorescence (viability) vs pre-drug, coculture with fibroblast (fraction); higher = more viable cancer cells
Experimental: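 JC-1 labelled TNBC cells cocultured 1:1 (1,500 cells each) with CellTrace Violet stained primary or stromal fibroblasts in 384-well plates in FluoroBrite medium, treated with one of 42 anticancer drugs at 0.1, 1, 10 or 100 uM. JC-1 red fluorescence (mitochondrial integrity in cancer cells only) was read by plate reader every 8 h for 72 h. Values are normalised to each well's pre-drug value. The stock of one drug was tenfold lower, so its dose labels may be too high.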

CO[C@@]12[C@H](COC(N)=O)C3=C(C(=O)C(C)=C(N)C3=O)N1C[C@@H]1N[C@@H]12 [Mitomycin C]
relative JC-1 red fluorescence
Details	8 h	16 h	24 h	32 h	40 h	48 h	56 h	64 h	72 h
0.1 µM, coculture fibroblast: C12385	0.8276	0.706	0.653	0.578	0.522	0.502	0.473	0.453	0.446
0.1 µM, coculture fibroblast: H6013	0.799	0.683	0.649	0.635	0.608	0.619	0.586	0.563	0.513
0.1 µM, coculture fibroblast: H6019	0.76	0.685	0.662	0.593	0.547	0.519	0.469	0.432	0.401
0.1 µM, coculture fibroblast: H6076	0.782	0.667	0.636	0.58409	0.5474	0.515	0.507	0.495	0.482
0.1 µM, coculture fibroblast: H6231	0.827	0.737	0.688	0.615	0.575	0.534	0.516	0.484	0.46
0.1 µM, coculture fibroblast: HADF	0.826	0.7517	0.706	0.675	0.659	0.663	0.611	0.601	0.553
0.1 µM, coculture fibroblast: HCFa	0.77	0.646	0.5988	0.567	0.53237	0.543	0.479	0.459	0.41
0.1 µM, coculture fibroblast: HCPF	0.7726	0.683	0.638	0.577	0.554	0.519	0.494	0.481	0.457
0.1 µM, coculture fibroblast: HHSteC	0.87	0.798	0.784	0.764	0.753	0.765	0.699	0.681	0.621
0.1 µM, coculture fibroblast: HMF	0.792	0.6752	0.617	0.574	0.545	0.512	0.503	0.484	0.484
0.1 µM, coculture fibroblast: HPFa	0.8395	0.7402	0.7204	0.6728	0.65879	0.674	0.5961	0.567	0.5
0.1 µM, coculture fibroblast: HUF	0.8155	0.701	0.655	0.574	0.515	0.486	0.463	0.448	0.437
0.1 µM, coculture fibroblast: Hs5	0.796	0.723	0.699	0.65	0.635	0.597	0.61	0.575	0.568
0.1 µM, coculture fibroblast: Hs27A	0.812	0.742	0.702	0.6731	0.644	0.684	0.62	0.616	0.563
0.1 µM, coculture fibroblast: Hs343T	0.807	0.693	0.634	0.588	0.556	0.521	0.498	0.487	0.479
0.1 µM, coculture fibroblast: WS1	0.796	0.6867	0.629	0.549	0.497	0.464	0.426	0.387	0.367
1 µM, coculture fibroblast: C12385	0.705	0.674	0.661	0.5842	0.554	0.543	0.536	0.522	0.521
1 µM, coculture fibroblast: H6013	0.752	0.717	0.703	0.676	0.664	0.686	0.633	0.617	0.574
1 µM, coculture fibroblast: H6019	0.721	0.6802	0.666	0.591	0.548	0.521	0.482	0.456	0.427
1 µM, coculture fibroblast: H6076	0.736	0.678	0.684	0.642	0.626	0.609	0.621	0.638	0.653
1 µM, coculture fibroblast: H6231	0.743	0.617	0.685	0.603	0.597	0.5719	0.581	0.575	0.56
1 µM, coculture fibroblast: HADF	0.798	0.756	0.727	0.71	0.696	0.729	0.673	0.675	0.631
1 µM, coculture fibroblast: HCFa	0.731	0.711	0.675	0.65	0.634	0.662	0.598	0.588	0.539
1 µM, coculture fibroblast: HCPF	0.747	0.698	0.708	0.657	0.641	0.613	0.602	0.593	0.584
1 µM, coculture fibroblast: HHSteC	0.7773	0.7626	0.7401	0.7121	0.7262	0.742	0.691	0.683	0.636
1 µM, coculture fibroblast: HMF	0.785	0.69	0.672	0.624	0.598	0.575	0.573	0.553	0.546
1 µM, coculture fibroblast: HPFa	0.8577	0.769	0.733	0.69	0.684	0.6939	0.631	0.609	0.551
1 µM, coculture fibroblast: HUF	0.832	0.741	0.726	0.658	0.614	0.584	0.561	0.55	0.542
1 µM, coculture fibroblast: Hs5	0.7361	0.68	0.664	0.615	0.614	0.576	0.594	0.582	0.574
1 µM, coculture fibroblast: Hs27A	0.792	0.711	0.723	0.719	0.721	0.797	0.733	0.739	0.682
1 µM, coculture fibroblast: Hs343T	0.752	0.661	0.628	0.584	0.555	0.519	0.515	0.509	0.507
1 µM, coculture fibroblast: WS1	0.7282	0.669	0.646	0.57	0.522	0.503	0.479	0.457	0.444
10 µM, coculture fibroblast: C12385	0.8273	0.742	0.671	0.604	0.552	0.535	0.518	0.509	0.507
10 µM, coculture fibroblast: H6013	0.829	0.7479	0.69	0.68	0.653	0.656	0.624	0.607	0.57
10 µM, coculture fibroblast: H6019	0.7436	0.6513	0.6164	0.527	0.474	0.448	0.421	0.413	0.408
10 µM, coculture fibroblast: H6076	0.777	0.656	0.573	0.526	0.49	0.462	0.447	0.446	0.432
10 µM, coculture fibroblast: H6231	0.7672	0.677	0.6033	0.5481	0.526	0.4854	0.487	0.473	0.462
10 µM, coculture fibroblast: HADF	0.844	0.778	0.713	0.691	0.651	0.652	0.592	0.57	0.522
10 µM, coculture fibroblast: HCFa	0.908	0.859	0.804	0.773	0.718	0.704	0.634	0.613	0.563
10 µM, coculture fibroblast: HCPF	0.7824	0.7058	0.63	0.577	0.548	0.519	0.506	0.495	0.491
10 µM, coculture fibroblast: HHSteC	0.8312	0.764	0.736	0.709	0.707	0.725	0.677	0.67	0.633
10 µM, coculture fibroblast: HMF	0.775	0.668	0.54	0.492	0.456	0.4256	0.405	0.389	0.382
10 µM, coculture fibroblast: HPFa	0.855	0.77	0.743	0.709	0.707	0.726	0.674	0.675	0.647
10 µM, coculture fibroblast: HUF	0.85	0.718	0.697	0.621	0.564	0.538	0.515	0.51	0.502
10 µM, coculture fibroblast: Hs5	0.848	0.74	0.676	0.608	0.5695	0.524	0.51	0.471	0.467
10 µM, coculture fibroblast: Hs27A	0.793	0.7443	0.75	0.749	0.765	0.806	0.782	0.782	0.715
10 µM, coculture fibroblast: Hs343T	0.7571	0.629	0.524	0.485	0.453	0.419	0.406	0.384	0.379
10 µM, coculture fibroblast: WS1	0.824	0.697	0.649	0.579	0.52	0.498	0.475	0.461	0.461
100 µM, coculture fibroblast: C12385	0.762	0.72	0.723	0.652	0.636	0.631	0.631	0.634	0.638
100 µM, coculture fibroblast: H6013	0.7703	0.75	0.746	0.738	0.744	0.778	0.747	0.747	0.715
100 µM, coculture fibroblast: H6019	0.7369	0.6852	0.698	0.6555	0.643	0.6391	0.6182	0.6097	0.6033
100 µM, coculture fibroblast: H6076	0.658	0.559	0.584	0.5568	0.5639	0.559	0.581	0.593	0.587
100 µM, coculture fibroblast: H6231	0.6583	0.624	0.7004	0.6444	0.6502	0.642	0.654	0.655	0.642
100 µM, coculture fibroblast: HADF	0.787	0.792	0.792	0.785	0.825	0.876	0.834	0.834	0.793
100 µM, coculture fibroblast: HCFa	0.7779	0.7367	0.731	0.737	0.764	0.804	0.765	0.772	0.731
100 µM, coculture fibroblast: HCPF	0.663	0.608	0.641	0.604	0.611	0.597	0.594	0.592	0.582
100 µM, coculture fibroblast: HHSteC	0.8097	0.8017	0.784	0.761	0.765	0.78	0.737	0.729	0.689
100 µM, coculture fibroblast: HMF	0.666	0.615	0.652	0.621	0.6437	0.6374	0.6592	0.65173	0.656
100 µM, coculture fibroblast: HPFa	0.8145	0.79604	0.772	0.74948	0.7722	0.8019	0.7587	0.7595	0.728
100 µM, coculture fibroblast: HUF	0.792	0.714	0.703	0.641	0.614	0.619	0.61	0.611	0.61
100 µM, coculture fibroblast: Hs5	0.673	0.597	0.5926	0.5444	0.5483	0.522	0.546	0.533	0.532
100 µM, coculture fibroblast: Hs27A	0.7703	0.7824	0.8054	0.817	0.8509	0.94	0.859	0.855	0.786
100 µM, coculture fibroblast: Hs343T	0.678	0.5793	0.571	0.538	0.522	0.505	0.516	0.508	0.519
100 µM, coculture fibroblast: WS1	0.74	0.702	0.714	0.667	0.664	0.67	0.67	0.666	0.6649

From the supplement of paper PMC6078165
